Results on 1 sequence are retold here after publication PMC6827163.

Chains of the proteins cited; added tags and fusions are not shown. Lines headed by an entry give the natural chain unless they say otherwise; changes in a name come on top.
UniProt P17676: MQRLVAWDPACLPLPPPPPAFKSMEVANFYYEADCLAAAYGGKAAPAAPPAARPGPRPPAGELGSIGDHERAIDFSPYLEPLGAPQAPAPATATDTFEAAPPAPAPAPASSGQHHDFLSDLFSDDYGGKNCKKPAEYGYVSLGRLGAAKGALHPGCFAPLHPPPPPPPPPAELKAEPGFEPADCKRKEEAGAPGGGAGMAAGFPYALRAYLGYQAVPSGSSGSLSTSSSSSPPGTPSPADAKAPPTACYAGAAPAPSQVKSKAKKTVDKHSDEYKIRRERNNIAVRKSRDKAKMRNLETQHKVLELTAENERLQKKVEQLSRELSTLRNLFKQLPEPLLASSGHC

This data set has as its target CEBPB (endogenous, HEK-293 nuclear extract) (UniProt P17676). Put plainly: EMSA supershift. To be noted: 5 mM Mg2+, poly(dI.dC), CEBPB antibody, 20 uL: 20 fmol biotin probe, 8-9 ug nuclear protein, 1x binding buffer (Thermo LightShift kit; salt and pH not stated), 2.5% glycerol, 5 mM MgCl2, 50 ng/uL poly(dI.dC), protein in an extract, label: 5'-biotin.

For at least one entry, the source does not settle the construct or the ends of the probe. Results from cells or extracts need not show a direct contact.

As to “ATTTCGTTCTCTCCCGGTTCCCCAACGTTAAAAAAAAAG (double strand) [HTR1A(-1235--1196) WT probe]”, the binding result is recorded as “binds”.
